From patent US20130210042A1 (CONSIGLIO NAZIONALE DELLE RICERCHE, published 2013)

Target: T1, 20-22 kDa NH2-truncated tau fragment (human, UniProt P10636 26-547)
T1 construct: Endogenous fragment in human synaptosomes, mitochondria, CSF and STS-treated SH-SY5Y cells; Exact limits not proven; also called NH2htau; NH2 htau fragment
Assay: co-immunoprecipitation from synaptosomes with CCP-NH2 tau as bait antibody
Method: A): Western blotting comparing synaptosomal proteins (500 μg) from ND, AD (ND, AD) subjects immunoprecipitated (IP) and probed (WB) with CCP—NH₂ tau (NH₂ aa 26-36 of human tau) antiserum. Total proteins extracts (70 μg unbound) from STS-treated (6hSY5Y) neuronal human SY5Y and from AD synaptosomal proteins (INPUT) were also loaded for lane and included as positive internal control of electrophoretic mobility and immunoprecipitation efficiency. It is noteworthy that a NH₂-tau fragment around 20-22 kDa (arrow), but not-full-length proteins running at 55-75 kDa(arrowheads), was efficiently immunoprecipitated by CCP—NH₂ tau antiserum on synaptic-enriched fractions from AD. The asterisk indicate immunoglobulin light chains in immunoprecipitates and no significant cross-reactions with human intact tau iso forms was found in total, un-precipitated proteins. B-F): In C), Western blotting analysis comparing synaptosomal proteins (500 μg) from ND, AD (ND, AD) subjects immunoprecipitated (IP) with CCP—NH₂ tau (NH₂ aa26-36 of human tau) antiserum and probed (WB) with ANT-1 antibody (the least C-terminal 12 amino acids of human neuronal ANT-1). […]
Next the authors analyzed whether ANT-1—the neuronal-specific isoform of ANT protein—was a mitochondrial target of the NH₂htau fragment.

B1: Cyt C (other, human, UniProt P99999 2-105, looked up)
chain: GDVEKGKKIFIMKCSQCHTVEKGGKHKTGPNLHGLFGRKTGQAPGYSYTAANKNKGIIWGEDTLMEYLENPKKYIPGTKMIFVGIKKKEERADLIAYLKKATNE
notes: also called cytochrome c
- binding result: no binding
